The assay has as its target T1, Myc-FIT (FER-like iron deficiency-induced transcription factor), expressed from 35S:Myc-FIT in Arabidopsis (Arabidopsis thaliana) (UniProt Q0V7X4).
T1 sequence: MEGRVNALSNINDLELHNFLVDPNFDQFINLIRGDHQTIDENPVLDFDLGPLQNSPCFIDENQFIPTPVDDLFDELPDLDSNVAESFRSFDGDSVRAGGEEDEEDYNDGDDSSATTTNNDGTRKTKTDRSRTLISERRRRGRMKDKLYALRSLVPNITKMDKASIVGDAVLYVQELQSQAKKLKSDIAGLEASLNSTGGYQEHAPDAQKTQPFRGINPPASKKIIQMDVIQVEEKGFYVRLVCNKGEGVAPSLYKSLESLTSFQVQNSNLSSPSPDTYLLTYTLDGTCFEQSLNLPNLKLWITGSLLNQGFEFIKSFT
Kind of assay: affinity purification with mass spectrometry; root protein extract of plants expressing 35S:Myc-FIT, with the proteasomal inhibitor MG132; proteins bound to Myc affinity resin separated by SDS/PAGE and identified by LC-MS; control plants for comparison.

By UniProt entry, the sequences of proteins in these tests, tags left out. Where a name states a change or a piece, a line headed by the entry shows the natural chain unless it says otherwise.
UniProt F4IDY5: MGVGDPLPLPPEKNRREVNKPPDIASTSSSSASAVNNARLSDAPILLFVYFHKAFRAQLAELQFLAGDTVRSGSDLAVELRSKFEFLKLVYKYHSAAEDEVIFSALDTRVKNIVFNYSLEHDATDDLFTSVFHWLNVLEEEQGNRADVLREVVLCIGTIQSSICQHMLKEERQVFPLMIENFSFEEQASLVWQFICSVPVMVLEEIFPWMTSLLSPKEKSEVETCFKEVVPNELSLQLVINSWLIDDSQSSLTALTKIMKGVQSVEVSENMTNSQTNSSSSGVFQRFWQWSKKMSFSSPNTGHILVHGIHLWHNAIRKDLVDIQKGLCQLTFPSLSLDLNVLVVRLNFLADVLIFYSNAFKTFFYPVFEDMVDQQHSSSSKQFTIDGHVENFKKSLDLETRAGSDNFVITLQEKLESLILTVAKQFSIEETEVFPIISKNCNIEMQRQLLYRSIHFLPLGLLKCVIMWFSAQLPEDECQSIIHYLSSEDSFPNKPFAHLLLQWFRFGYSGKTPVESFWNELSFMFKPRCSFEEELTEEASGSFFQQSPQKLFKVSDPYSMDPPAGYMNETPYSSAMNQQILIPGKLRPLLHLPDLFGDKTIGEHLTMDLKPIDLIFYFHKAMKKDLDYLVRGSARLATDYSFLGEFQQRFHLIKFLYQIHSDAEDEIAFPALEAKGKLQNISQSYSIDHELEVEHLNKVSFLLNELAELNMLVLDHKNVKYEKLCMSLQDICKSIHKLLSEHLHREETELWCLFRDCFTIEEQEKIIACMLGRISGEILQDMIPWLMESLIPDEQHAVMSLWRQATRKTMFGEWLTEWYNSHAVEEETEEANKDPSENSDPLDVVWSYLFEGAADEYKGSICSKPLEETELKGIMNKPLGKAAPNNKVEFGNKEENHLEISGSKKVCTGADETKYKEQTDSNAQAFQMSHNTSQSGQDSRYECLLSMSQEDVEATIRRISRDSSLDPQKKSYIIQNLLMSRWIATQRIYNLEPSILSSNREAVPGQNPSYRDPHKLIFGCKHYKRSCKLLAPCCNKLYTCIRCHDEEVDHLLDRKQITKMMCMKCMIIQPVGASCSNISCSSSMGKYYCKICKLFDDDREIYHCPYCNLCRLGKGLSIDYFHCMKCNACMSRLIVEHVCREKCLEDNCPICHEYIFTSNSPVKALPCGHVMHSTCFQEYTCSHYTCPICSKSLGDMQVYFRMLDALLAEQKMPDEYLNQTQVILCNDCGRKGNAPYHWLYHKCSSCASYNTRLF

No constants are given. Whether binding was seen depends on the method and setting. Binding seen in cells or lysates may run through a third protein. These calls come from enrichment with a bait or labelling near it, and not all partners need be listed. Where a sequence is shown, tags or fusion partners need not be part of it.

With “BRUTUS-LIKE2 (BTSL2), endogenous (from UniProt F4IDY5)”, the binding entry is on record as “binds”.

B1: bHLH39 (endogenous) (protein, UniProt Q9M1K0 1-258)
chain: MCALVPPLFPNFGWPSTGEYDSYYLAGDILNNGGFLDFPVPEETYGAVTAVTQHQNSFGVSVSSEGNEIDNNPVVVKKLNHNASERDRRRKINSLFSSLRSCLPASGQSKKLSIPATVSRSLKYIPELQEQVKKLIKKKEELLVQISGQRNTECYVKQPPKAVANYISTVSATRLGDNEVMVQISSSKIHNFSISNVLSGLEEDRFVLVDMSSSRSQGERLFYTLHLQVEKIENYKLNCEELSQRMLYLYEECGNSYI
Consider B1, for which the binding result is on record as “binds”.

The record behind these values is paper PMC6717287.
